Consider 33 molecules from PubChem BioAssay AID248 (DTP/NCI, 2004).

The assay relates to L1210 leukemia ip in BDF1 mice, survival T/C. Put plainly: NCI In Vivo Anticancer Drug Screen. Data for tumor model L1210 Leukemia (intraperitoneal) in B6D2F1 (BDF1) mice. The settings on record: T/C endpoint: mean survival time, higher T/C = longer survival.
[1] abbreviates: dose: 400.0 mg/kg/injection, schedule: Q04DX003 (ip), vehicle: saline with Tween-80.
[2] abbreviates: dose: 100.0 mg/kg/injection, schedule: Q01DX009 (ip), vehicle: saline with Tween-80.
[3] abbreviates: dose: 400.0 mg/kg/injection, schedule: Q01DX009 (ip), vehicle: saline with Tween-80.
The mark [4] stands for this setting: dose: 200.0 mg/kg/injection, schedule: Q04DX003 (ip), vehicle: saline with Tween-80.
[5] abbreviates: dose: 400.0 mg/kg/injection, schedule: Q04DX003 (ip), vehicle: saline.
Setting [6] is: dose: 200.0 mg/kg/injection, schedule: Q04DX003 (ip), vehicle: Klucel (hydroxypropylcellulose) (HPC).
Where [7] appears, read: dose: 400.0 mg/kg/injection, schedule: Q04DX003 (ip), vehicle: Klucel (hydroxypropylcellulose) (HPC).
[8] abbreviates: dose: 100.0 mg/kg/injection, schedule: Q04DX003 (ip), vehicle: Klucel (hydroxypropylcellulose) (HPC).
Where [9] appears, read: dose: 25.0 mg/kg/injection, schedule: Q01DX009 (ip), vehicle: saline.
The mark [10] stands for this setting: dose: 50.0 mg/kg/injection, schedule: Q01DX009 (ip), vehicle: saline.
[11] abbreviates: dose: 200.0 mg/kg/injection, schedule: Q04DX003 (ip), vehicle: saline.
The mark [12] stands for this setting: dose: 400.0 mg/kg/injection, schedule: Q01DX001 (ip), vehicle: Klucel (hydroxypropylcellulose) (HPC).
Setting [13] is: dose: 100.0 mg/kg/injection, schedule: Q01DX009 (ip), vehicle: Klucel (hydroxypropylcellulose) (HPC).
Setting [14] is: dose: 400.0 mg/kg/injection, schedule: Q01DX009 (ip), vehicle: water.

The list is a part of this screen's results and no random one: it is rich in T/C values a quarter to a half above the control, in often repeated tests (any T/C) and in doses without a T/C. Other doses and runs of a compound stand elsewhere. T/C gives the treated animals as a percentage of the vehicle group. Some entries give survivors of the animals treated and no T/C: the source holds a T/C of zero for them, seemingly a mark for toxic or unscored doses. Some doses without a T/C left all or most animals alive at the check, yet need not have been tolerated: the source hardly ever lists a survival T/C far under the control, and the zero likely stands for such cases as well. Survivors were counted at the toxicity check, usually on the fifth day, unless a day is given; later deaths do not show. Schedule codes are those of the source, read here as Q, the interval in days (D) or hours (H), X, the number of doses. Where survival is the endpoint, the PubChem record calls one and a half times the control and up active, and a quarter to a half above the control has no call in these data; cut-offs in other NCI protocols can differ. Some T/C values are followed by the survivors on the day toxicity was checked, most often the fifth; where none is given, no animal had died by that day. Some doses were run more than once; the values are given in rising order.

Regarding `C=C1CC2(OC1=O)C(=O)N(C)c1ccccc12` (configuration not stated), the survivor count is recorded as 1 of 3 (dose: 100.0 mg/kg/injection, schedule: Q04DX002 (ip), vehicle: gum acacia); 0 of 3 (dose: 200.0 mg/kg/injection, schedule: Q04DX002 (ip), vehicle: gum acacia); 0 of 3 (dose: 400.0 mg/kg/injection, schedule: Q04DX002 (ip), vehicle: gum acacia).
Consider `CC(C)N(CCCO)C(C)C`, for which the survivor count under setting [1] is on record as 0 of 6.
Regarding `COC(OC)C1C=CC=CC=C1`, the survivor count under setting [2] is listed as 5 of 6 and the survivor count under setting [3] is 1 of 6.
Take `CCCCCCP(=O)(CCCCCC)CCCCCC` (tested in a mixture with another compound): under setting [3], the survivor count is listed as 0 of 6.
In the case of `C[Si](C)(C)Oc1cc(N=NNC2=CC(=O)c3ccccc3C2=O)c(O)c2ccccc12`, the survivor count by setting is: (dose: 100.0 mg/kg/injection, schedule: Q04DX003 (ip), vehicle: saline with Tween-80) 6 of 6; under setting [4], 6 of 6.
Take `CC1(C)N=C(N)N=C(N)N1CCc1ccccc1`: for the setting “dose: 100.0 mg/kg/injection, schedule: Q01DX001 (ip), vehicle: saline with Tween-80”, the survivor count is 0 of 6.
`Cc1c2ccccc2c(C)c2c1c(F)cc1ccccc12`: the T/C was 134 % of control (dose: 75.0 mg/kg/injection, schedule: Q01DX001 (ip), vehicle: Klucel (hydroxypropylcellulose) (HPC)) and 125 % of control (dose: 150.0 mg/kg/injection, schedule: Q01DX001 (ip), vehicle: Klucel (hydroxypropylcellulose) (HPC)).
Regarding `NC(CSSCC(N)=NCC12CC3CC(CC(C3)C1)C2)=NCC12CC3CC(CC(C3)C1)C2`, the survivor count (dose: 400.0 mg/kg/injection, schedule: Q04DX002 (ip), vehicle: saline with Tween-80) is 0 of 3.
As to `Cc1ccc(P(=O)(O)O)cc1C`, the survivor count under setting [5] is reported as 2 of 6.
Regarding `COc1ccc(OC)c(NC(=O)Nc2cc([N+](=O)[O-])ccc2C)c1`, the survivor count (dose: 100.0 mg/kg/injection, schedule: Q04DX002 (ip), vehicle: Klucel (hydroxypropylcellulose) (HPC)) is listed as 4 of 4.
In the case of `COc1ccccc1OCCOCCNC1C(C)CCCC1(C)C` (configuration not stated), the survivor count was 2 of 6 under setting [6] and 2 of 6 under setting [7].
As to `Cn1cnc(=O)c2ccccc21`, the survivor count under setting [5] is on record as 1 of 3.
On to `CC(C)(C)C1=CC(=O)C=C(C(C)(C)C)C1=O`, for which the survivor count under setting [8] is 6 of 6.
In the case of `CCCCOc1ccc(NC(=O)CCl)cc1`, the survivor count is, setting by setting: under setting [4], 4 of 6; under setting [1], 0 of 6.
As to `C[N+](C)(C)CCCC1C2CCC(C2)C1C#N` (configuration not stated), the survivor count under setting [9] is 3 of 6; the survivor count under setting [10] is listed as 3 of 6; the survivor count (dose: 100.0 mg/kg/injection, schedule: Q04DX003 (ip), vehicle: saline) is 0 of 6; the survivor count under setting [11] was 0 of 6; the survivor count under setting [5] was 0 of 6.
As for `CC1=C(O)C(=O)C(c2c(C)cc(C)c(Br)c2C)=C(O)C1=O`, the survivor count is, setting by setting: (dose: 150.0 mg/kg/injection, schedule: Q01DX009 (ip), vehicle: Klucel (hydroxypropylcellulose) (HPC)) 3 of 6; (dose: 300.0 mg/kg/injection, schedule: Q01DX009 (ip), vehicle: Klucel (hydroxypropylcellulose) (HPC)) 0 of 6.
`C#CC(O)c1ccccc1` (configuration not stated): the survivor count by setting is: under setting [8], 1 of 6; under setting [6], 0 of 6; under setting [7], 0 of 6.
As to `CCc1cc2c(cc1C(=O)/C=C\C(=O)O)C(C)(C)CCC2(C)C`, the survivor count is, setting by setting: (dose: 15.0 mg/kg/injection, schedule: Q01DX009 (ip), vehicle: saline with Tween-80) 0 of 6; (dose: 22.0 mg/kg/injection, schedule: Q01DX001 (ip), vehicle: saline) 0 of 6; (dose: 23.0 mg/kg/injection, schedule: Q04DX003 (ip), vehicle: acetone) 1 of 6; (dose: 35.0 mg/kg/injection, schedule: Q04DX003 (ip), vehicle: acetone) 0 of 6; (dose: 50.0 mg/kg/injection, schedule: Q04DX003 (ip), vehicle: acetone) 0 of 6.
Regarding `CC1CC(C)(C)[N+](C)=C(CC(C)(C)O)O1` (configuration not stated), the survivor count under setting [11] is 1 of 6 and the survivor count under setting [5] was 0 of 6.
As for `CC(=O)OCC1OC(n2cc(F)c(=O)[nH]c2=O)CC1OC(C)=O` (configuration not stated), the T/C by setting is: under setting [9], 125 % of control; under setting [10], 125 % of control; (dose: 100.0 mg/kg/injection, schedule: Q01DX009 (ip), vehicle: saline) 127 and 129 % of control [5 of 6 alive]; (dose: 200.0 mg/kg/injection, schedule: Q01DX009 (ip), vehicle: saline) 132 % of control; (dose: 400.0 mg/kg/injection, schedule: Q01DX009 (ip), vehicle: saline) 146 % of control.
As for `O=C(NCCN1CCCCC1)C(O)(c1ccccc1)C1CCCCC1` (configuration not stated), the survivor count (dose: 300.0 mg/kg/injection, schedule: Q01DX001 (ip), vehicle: other) was 0 of 6.
`COc1ccc2[nH]c(=O)ccc2c1`: the survivor count under setting [12] is reported as 2 of 6.
Regarding `Cc1cccc(C)c1NC(=O)Oc1ccc(F)cc1Cl`, the survivor count (dose: 400.0 mg/kg/injection, schedule: Q01DX009 (ip), vehicle: Klucel (hydroxypropylcellulose) (HPC)) is on record as 3 of 6.
In the case of `CCN(CC)CCCC(C)Nc1cccc2c1C(=O)c1c(c(O)c3ccccc3c1O)C2=O` (configuration not stated), the survivor count (dose: 100.0 mg/kg/injection, schedule: Q04DX002 (ip), vehicle: saline) is 3 of 3; the survivor count (dose: 200.0 mg/kg/injection, schedule: Q04DX002 (ip), vehicle: saline) is 0 of 3; the survivor count (dose: 400.0 mg/kg/injection, schedule: Q04DX002 (ip), vehicle: saline) is 0 of 3.
`Oc1ccc2ccccc2c1/C=C/c1ccncc1`: the survivor count runs as follows: under setting [13], 4 of 6; (dose: 200.0 mg/kg/injection, schedule: Q01DX001 (ip), vehicle: Klucel (hydroxypropylcellulose) (HPC)) 4 of 6; (dose: 200.0 mg/kg/injection, schedule: Q01DX009 (ip), vehicle: Klucel (hydroxypropylcellulose) (HPC)) 0 of 6; under setting [12], 0 of 6.
Turning to `O=C(O)/C=C/S(=O)(=O)c1ccc(Cl)cc1`, the survivor count under setting [13] is listed as 0 of 3; the survivor count (dose: 200.0 mg/kg/injection, schedule: Q04DX002 (ip), vehicle: Klucel (hydroxypropylcellulose) (HPC)) was 1 of 3; the survivor count (dose: 400.0 mg/kg/injection, schedule: Q04DX002 (ip), vehicle: Klucel (hydroxypropylcellulose) (HPC)) is 0 of 3.
For `CCCCN(CCCC)C(=O)c1[nH]cnc1/N=N\N(C)C`, the survivor count is recorded as 0 of 6 (dose: 200.0 mg/kg/injection, schedule: Q01DX009 (ip), vehicle: saline with Tween-80) and 0 of 6 (dose: 400.0 mg/kg/injection, schedule: Q01DX001 (ip), vehicle: saline with Tween-80).
`CCOc1nc(SCC)ncc1C`: the survivor count under setting [14] is 3 of 6.
Consider `NCCNc1ncnc2c1ncn2C1OC(CO)C(O)C1O` (configuration not stated), for which the survivor count (dose: 200.0 mg/kg/injection, schedule: Q01DX005 (ip), vehicle: saline) is given as 1 of 6.
Regarding `O=C1c2ccccc2-c2cc(-c3ccccc3)cc(-c3ccccc3)c21`, under setting [6], the survivor count is given as 6 of 6.
Turning to `CC(=O)N1C=Cn2c(cnc2C)C1O` (configuration not stated), the survivor count under setting [14] was 0 of 6.
Regarding `O=C(c1ccccc1)c1cc(-c2ccccc2)n(C2CCCCC2)c1`, the survivor count under setting [2] is recorded as 3 of 3.
For `CC(C)CC(C=NCC(CCN(C)C)(CC(C)C)c1cccc2ccccc12)(CCN(C)C)c1cccc2ccccc12` (configuration not stated), the survivor count is, setting by setting: (dose: 50.0 mg/kg/injection, schedule: Q01DX009 (ip), vehicle: Klucel (hydroxypropylcellulose) (HPC)) 0 of 6; under setting [8], 3 of 6; under setting [6], 0 of 6; under setting [7], 0 of 6.
